We go through eight targets from the supplement of paper PMC10849652.

Chains of the proteins cited; added tags and fusions are not shown. Lines headed by an entry give the natural chain unless they say otherwise; changes in a name come on top.
UniProt Q9P013: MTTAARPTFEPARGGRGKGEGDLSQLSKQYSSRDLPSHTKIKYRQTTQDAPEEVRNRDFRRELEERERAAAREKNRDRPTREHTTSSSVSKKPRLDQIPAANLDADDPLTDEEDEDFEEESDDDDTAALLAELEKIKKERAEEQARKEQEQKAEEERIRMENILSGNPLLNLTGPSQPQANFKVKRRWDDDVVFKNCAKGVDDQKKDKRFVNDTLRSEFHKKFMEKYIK
UniProt O75534: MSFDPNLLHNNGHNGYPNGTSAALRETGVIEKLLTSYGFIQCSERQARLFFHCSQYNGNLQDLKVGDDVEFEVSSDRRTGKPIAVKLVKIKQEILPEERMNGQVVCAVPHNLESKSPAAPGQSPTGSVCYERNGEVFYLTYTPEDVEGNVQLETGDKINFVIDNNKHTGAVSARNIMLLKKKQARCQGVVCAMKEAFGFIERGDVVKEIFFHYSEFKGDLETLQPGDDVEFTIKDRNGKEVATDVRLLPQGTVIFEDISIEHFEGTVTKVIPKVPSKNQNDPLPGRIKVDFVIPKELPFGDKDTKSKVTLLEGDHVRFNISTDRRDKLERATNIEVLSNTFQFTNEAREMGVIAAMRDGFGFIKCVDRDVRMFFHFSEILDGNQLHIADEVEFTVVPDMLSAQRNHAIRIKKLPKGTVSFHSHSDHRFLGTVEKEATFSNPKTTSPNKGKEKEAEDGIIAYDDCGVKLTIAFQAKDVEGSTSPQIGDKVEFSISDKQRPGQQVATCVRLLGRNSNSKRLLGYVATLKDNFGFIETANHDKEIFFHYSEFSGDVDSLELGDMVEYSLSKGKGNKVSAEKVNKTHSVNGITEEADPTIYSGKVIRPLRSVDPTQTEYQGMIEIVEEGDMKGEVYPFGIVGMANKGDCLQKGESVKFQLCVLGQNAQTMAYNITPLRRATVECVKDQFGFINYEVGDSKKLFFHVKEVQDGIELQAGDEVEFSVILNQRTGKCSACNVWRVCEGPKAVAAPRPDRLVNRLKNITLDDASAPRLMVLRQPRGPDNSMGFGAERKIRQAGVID
UniProt P00167, whole entry, looked up: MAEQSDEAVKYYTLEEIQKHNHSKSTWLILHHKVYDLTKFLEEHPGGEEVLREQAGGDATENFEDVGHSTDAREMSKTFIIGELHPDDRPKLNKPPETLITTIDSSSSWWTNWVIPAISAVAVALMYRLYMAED
UniProt O95196: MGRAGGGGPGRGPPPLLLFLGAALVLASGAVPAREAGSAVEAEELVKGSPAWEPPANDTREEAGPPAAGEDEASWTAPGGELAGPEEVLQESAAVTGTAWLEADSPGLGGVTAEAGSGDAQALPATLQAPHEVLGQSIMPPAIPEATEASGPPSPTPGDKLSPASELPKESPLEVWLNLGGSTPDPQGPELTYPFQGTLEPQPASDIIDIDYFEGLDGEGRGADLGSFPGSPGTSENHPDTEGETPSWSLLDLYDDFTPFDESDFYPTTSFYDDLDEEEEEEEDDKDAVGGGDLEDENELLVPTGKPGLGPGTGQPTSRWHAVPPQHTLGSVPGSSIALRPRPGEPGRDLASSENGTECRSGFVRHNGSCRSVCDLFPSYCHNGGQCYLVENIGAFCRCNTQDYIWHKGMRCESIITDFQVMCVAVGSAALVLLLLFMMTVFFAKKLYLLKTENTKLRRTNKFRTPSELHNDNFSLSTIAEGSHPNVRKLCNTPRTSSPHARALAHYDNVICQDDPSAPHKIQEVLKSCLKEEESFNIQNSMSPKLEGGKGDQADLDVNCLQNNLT
UniProt P48730: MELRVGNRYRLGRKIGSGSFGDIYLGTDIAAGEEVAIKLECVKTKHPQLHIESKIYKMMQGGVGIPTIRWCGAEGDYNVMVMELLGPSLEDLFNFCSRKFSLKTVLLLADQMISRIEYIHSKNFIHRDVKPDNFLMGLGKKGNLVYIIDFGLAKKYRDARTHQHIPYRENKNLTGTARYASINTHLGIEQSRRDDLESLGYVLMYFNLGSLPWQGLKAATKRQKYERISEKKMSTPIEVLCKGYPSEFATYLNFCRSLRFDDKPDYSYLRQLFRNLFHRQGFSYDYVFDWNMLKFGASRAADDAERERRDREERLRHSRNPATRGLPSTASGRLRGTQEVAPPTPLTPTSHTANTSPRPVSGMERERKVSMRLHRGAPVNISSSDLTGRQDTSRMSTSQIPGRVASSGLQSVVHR
UniProt P26232: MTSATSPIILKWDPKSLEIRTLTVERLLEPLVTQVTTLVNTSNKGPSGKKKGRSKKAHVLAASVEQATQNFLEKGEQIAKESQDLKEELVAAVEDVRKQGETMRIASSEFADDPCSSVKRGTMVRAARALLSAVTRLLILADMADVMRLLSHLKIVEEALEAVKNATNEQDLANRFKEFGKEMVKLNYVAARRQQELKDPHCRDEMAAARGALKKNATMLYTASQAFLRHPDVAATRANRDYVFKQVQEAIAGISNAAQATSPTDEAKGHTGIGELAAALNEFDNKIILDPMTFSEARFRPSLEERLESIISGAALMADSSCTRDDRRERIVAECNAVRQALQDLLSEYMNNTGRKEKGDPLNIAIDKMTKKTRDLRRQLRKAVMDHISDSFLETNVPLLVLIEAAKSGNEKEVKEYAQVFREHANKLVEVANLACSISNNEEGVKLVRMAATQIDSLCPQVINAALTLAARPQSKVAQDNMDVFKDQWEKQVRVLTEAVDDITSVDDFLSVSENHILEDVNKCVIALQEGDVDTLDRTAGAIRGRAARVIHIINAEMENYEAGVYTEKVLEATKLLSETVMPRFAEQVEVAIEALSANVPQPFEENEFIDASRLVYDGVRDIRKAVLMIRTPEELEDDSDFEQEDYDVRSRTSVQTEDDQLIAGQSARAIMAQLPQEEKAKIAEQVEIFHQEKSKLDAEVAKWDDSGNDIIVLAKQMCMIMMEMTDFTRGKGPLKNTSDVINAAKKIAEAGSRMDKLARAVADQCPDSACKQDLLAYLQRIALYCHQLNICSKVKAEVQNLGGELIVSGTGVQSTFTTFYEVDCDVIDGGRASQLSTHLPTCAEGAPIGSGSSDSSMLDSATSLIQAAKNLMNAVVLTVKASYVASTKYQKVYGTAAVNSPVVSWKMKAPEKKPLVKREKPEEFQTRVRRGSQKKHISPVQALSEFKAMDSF
UniProt Q96DE9: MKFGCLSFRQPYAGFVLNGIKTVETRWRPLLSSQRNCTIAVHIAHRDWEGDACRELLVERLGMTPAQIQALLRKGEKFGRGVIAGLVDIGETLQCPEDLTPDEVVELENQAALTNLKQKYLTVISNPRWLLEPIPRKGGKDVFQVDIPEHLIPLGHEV

Holding throughout (assay): log2 fold change, soluble protein after heating vs DMSO (PISA); higher = thermal stabilisation; K562 lysate, 10 uM; active = over 0.2 and 3.5 SD of the protein, either way, in both replicates (recomputed)
Compound in one assay: C=CC(=O)N1CCC[C@@H](n2nc(-c3ccc(Oc4ccccc4)cc3)c3c(N)ncnc32)C1 [ibrutinib]
Summed up:
(§1)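 A 30 min treatment with 10 μM compound was applied to crude K562 extract at 1 mg/mL protein in PBS pH 7.4 with 1 mM MgCl2. Heating for 3 min spanned 48°C-58°C, after which aliquots were pooled, adjusted to 0.5% NP-40 at 4°C and spun at 21,000xg for 90 min. TMTpro 16plex LC-MS/MS of the supernatant, with channel sums equalised, gave values recorded as log-two fold change in thermal stability against solvent controls, from duplicates.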

Compound in assay [1]: CC(=O)c1cnc2ccc(-c3cc(Cl)c(O)c(Cl)c3)nc2c1N[C@H]1CC[C@H](CN(C)C)CC1
Summed up: as §1

Compound in another assay: CC(C)(C)Cn1c(N)nc2ccc(-c3[nH]c(C(C)(C)C)nc3-c3ccc(F)cc3)nc21 [ralimetinib]
Summed up: as §1

Compound in assay [2]: CC(C)(O)CC(=O)NCCn1ccc2ncnc(Nc3ccc(Oc4cccc(C(F)(F)F)c4)c(Cl)c3)c21
Summed up:
as §1

Compound in assay [3]: CC(C)C1=C2N=C(C=C(N2N=C1)NCC3=CC=CC=C3)NCCCCCCN
Summed up: as §1

Compound in assay [4]: CC1=C(C(CC(=O)N1)C2=CC=C(C=C2)C(F)(F)F)C(=O)NC3=C(C=C4C(=C3)C=NN4)F
The gist of the method:
as §1

Compound in assay [5]: CC1=C(C2=C(C=C1)C(=O)C3=CC=CC=C3N2CCCN)C
The gist of the method: as §1

Compound in assay [6]: CC1=C(C=C(C=C1)NC(=O)C2=CC(=CC=C2)C(C)(C)C#N)NC3=CC4=C(C=C3)N=CN(C4=O)C
Summed up: as §1

Compound in assay [7]: CC1=C(C=C(C=C1)NC(=O)C2=CC(=CC=C2)N(C)C)NC(=O)C3=CC=C(C=C3)O
The gist of the method: as §1

Compound in assay [8]: CC1=CC=C(C=C1)SC2=C3C=C(SC3=CN=C2)C(=O)N
The gist of the method: as §1

The other results are listed elsewhere or left out.

Consider CWC15 (UniProt Q9P013), for which the log2 fold change is inactive: 0.013 in the assay with ibrutinib; inactive: 0.008 in assay [1]; inactive: -0.017 with ralimetinib; inactive: -0.039 in assay [2]; inactive: -0.019 in assay [3]; inactive: 0.077 in assay [4]. The log2 fold change in assay [5] was inactive: 0.02; in assay [6] it was inactive: -0.012; in assay [7], inactive: -0.053; in assay [8], inactive: -0.045.

In the case of CSDE1 isoform 3 (UniProt O75534), the log2 fold change is inactive: 0.051 in the assay with ibrutinib; inactive: -0.331 in assay [1]; inactive: 0.047 with ralimetinib; inactive: 0.019 in assay [2]; inactive: -0.112 in [4]; inactive: -0.009 in assay [6]. Moreover, the values for the log2 fold change in assay [7] and in assay [8] were inactive: -0.137 and inactive: 0.031, respectively.

Consider CRYM-AS1 (UniProt A6NIL9), for which the log2 fold change with ibrutinib was inactive: 0.129; in assay [1], inactive: -0.197; with ralimetinib, inactive: -0.146; in assay [2], inactive: -0.439; in assay [3], inactive: -0.048; in [4], inactive: -0.032. Moreover, the log2 fold change in [6] was inactive: 0.009; in assay [7] it was inactive: -0.058; in [8] it was inactive: -0.092.

With CYB5A (UniProt P00167), the log2 fold change in the assay with ibrutinib was inactive: 0.08; with ralimetinib it was inactive: -0.026; in assay [2] it was inactive: -0.057; in assay [3], inactive: 0.025; in assay [4], inactive: 0.06; in [5] it was inactive: -0.086. Further, the log2 fold change in assay [6] is inactive: 0.001; in assay [7] it was inactive: 0.05.

As for CSPG5 isoform 2 (UniProt O95196), the log2 fold change with ibrutinib is inactive: 0.001; in the assay with ralimetinib, inactive: -0.109; in assay [2] it was inactive: 0.087; in assay [3], inactive: 0.015; in assay [4], inactive: -0.451; in assay [6], inactive: 0.012. For the same target, the log2 fold change in assay [7] is inactive: 0.031.

As for CSNK1D (UniProt P48730), the log2 fold change is inactive: -0.086 with ibrutinib; active: 0.494 in [1]; inactive: -0.038 in the assay with ralimetinib; inactive: -0.112 in assay [2]; inactive: 0.245 in assay [4]; inactive: -0.151 in [5]. Further, the log2 fold change in assay [6] is inactive: -0.001; in assay [7], inactive: -0.143; in assay [8], inactive: 0.179.

Take CTNNA2 (UniProt P26232): the log2 fold change with ibrutinib is inactive: -0.001; in assay [1] it was inactive: 0.001; with ralimetinib it was inactive: 0.031; in assay [2], inactive: 0.028; in [3], inactive: -0.017; in assay [4], inactive: 0.008. In addition, the log2 fold change is inactive: -0.029 in [5], inactive: 0.04 in assay [6], inactive: -0.04 in assay [7] and inactive: -0.025 in assay [8].

For the target CXorf40B (UniProt Q96DE9), the log2 fold change in the assay with ibrutinib is inactive: 0.181; in [1] it was inactive: 0.011; with ralimetinib, inactive: -0.066; in assay [2], inactive: 0.032; in [4], inactive: -0.14; in assay [5], inactive: 0.165. The log2 fold change was inactive: 0.078 in assay [6], inactive: 0.073 in [7] and inactive: -0.161 in assay [8].
